Assay results published in PMC12442642.
These are yes or no findings as the source states them, for the method shown. Binding seen in cells or lysates may run through a third protein. Here binding means that the protein was enriched with, or labelled near, the bait; the list need not be complete.

Protein sequences, listed by entry. Tags and fused reporters are not part of them. Lines headed by an entry give the natural chain unless they say otherwise; changes in a name come on top.
UniProt P40238: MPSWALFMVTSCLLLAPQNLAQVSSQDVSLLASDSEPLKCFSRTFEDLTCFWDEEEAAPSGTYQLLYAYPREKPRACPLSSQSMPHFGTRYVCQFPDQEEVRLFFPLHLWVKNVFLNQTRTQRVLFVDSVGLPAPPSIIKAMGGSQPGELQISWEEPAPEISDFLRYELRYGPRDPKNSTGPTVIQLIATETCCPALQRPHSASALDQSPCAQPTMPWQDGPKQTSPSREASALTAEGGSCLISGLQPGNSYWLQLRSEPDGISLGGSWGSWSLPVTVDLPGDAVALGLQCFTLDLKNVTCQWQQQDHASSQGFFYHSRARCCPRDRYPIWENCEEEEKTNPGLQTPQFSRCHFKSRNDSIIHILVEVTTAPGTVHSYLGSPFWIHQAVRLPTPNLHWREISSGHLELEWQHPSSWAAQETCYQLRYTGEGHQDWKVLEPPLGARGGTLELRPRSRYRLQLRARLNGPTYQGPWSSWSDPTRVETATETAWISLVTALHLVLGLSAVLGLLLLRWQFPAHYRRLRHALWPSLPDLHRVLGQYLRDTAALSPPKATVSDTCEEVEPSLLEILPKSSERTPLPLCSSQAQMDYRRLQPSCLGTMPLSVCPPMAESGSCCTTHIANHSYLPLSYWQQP
UniProt P52732: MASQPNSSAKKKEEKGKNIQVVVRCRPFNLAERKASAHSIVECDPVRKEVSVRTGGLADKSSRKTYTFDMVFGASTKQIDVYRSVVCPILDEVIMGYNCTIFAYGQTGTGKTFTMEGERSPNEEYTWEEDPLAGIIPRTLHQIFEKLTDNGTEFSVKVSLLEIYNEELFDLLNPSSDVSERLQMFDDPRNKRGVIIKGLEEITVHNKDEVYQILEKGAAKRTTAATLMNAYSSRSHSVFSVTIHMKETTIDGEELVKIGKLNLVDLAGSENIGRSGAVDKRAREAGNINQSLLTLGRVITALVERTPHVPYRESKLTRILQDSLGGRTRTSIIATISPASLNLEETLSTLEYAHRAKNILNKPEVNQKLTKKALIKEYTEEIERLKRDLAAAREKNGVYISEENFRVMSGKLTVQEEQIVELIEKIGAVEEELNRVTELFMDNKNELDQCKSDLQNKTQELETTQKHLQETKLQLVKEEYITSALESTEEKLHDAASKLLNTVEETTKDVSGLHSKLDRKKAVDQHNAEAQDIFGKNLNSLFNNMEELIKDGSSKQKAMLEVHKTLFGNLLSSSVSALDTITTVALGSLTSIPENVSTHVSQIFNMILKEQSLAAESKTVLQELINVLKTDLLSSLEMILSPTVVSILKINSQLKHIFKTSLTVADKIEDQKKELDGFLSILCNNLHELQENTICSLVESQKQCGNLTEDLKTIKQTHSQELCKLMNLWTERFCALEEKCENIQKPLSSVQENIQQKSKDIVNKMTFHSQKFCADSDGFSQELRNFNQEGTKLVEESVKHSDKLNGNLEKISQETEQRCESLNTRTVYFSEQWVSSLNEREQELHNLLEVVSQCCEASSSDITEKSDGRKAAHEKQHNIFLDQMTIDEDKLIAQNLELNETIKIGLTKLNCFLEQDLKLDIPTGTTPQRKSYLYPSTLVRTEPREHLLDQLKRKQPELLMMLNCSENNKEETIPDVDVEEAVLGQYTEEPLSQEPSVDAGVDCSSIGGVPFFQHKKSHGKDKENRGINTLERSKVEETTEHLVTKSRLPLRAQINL
UniProt P35580: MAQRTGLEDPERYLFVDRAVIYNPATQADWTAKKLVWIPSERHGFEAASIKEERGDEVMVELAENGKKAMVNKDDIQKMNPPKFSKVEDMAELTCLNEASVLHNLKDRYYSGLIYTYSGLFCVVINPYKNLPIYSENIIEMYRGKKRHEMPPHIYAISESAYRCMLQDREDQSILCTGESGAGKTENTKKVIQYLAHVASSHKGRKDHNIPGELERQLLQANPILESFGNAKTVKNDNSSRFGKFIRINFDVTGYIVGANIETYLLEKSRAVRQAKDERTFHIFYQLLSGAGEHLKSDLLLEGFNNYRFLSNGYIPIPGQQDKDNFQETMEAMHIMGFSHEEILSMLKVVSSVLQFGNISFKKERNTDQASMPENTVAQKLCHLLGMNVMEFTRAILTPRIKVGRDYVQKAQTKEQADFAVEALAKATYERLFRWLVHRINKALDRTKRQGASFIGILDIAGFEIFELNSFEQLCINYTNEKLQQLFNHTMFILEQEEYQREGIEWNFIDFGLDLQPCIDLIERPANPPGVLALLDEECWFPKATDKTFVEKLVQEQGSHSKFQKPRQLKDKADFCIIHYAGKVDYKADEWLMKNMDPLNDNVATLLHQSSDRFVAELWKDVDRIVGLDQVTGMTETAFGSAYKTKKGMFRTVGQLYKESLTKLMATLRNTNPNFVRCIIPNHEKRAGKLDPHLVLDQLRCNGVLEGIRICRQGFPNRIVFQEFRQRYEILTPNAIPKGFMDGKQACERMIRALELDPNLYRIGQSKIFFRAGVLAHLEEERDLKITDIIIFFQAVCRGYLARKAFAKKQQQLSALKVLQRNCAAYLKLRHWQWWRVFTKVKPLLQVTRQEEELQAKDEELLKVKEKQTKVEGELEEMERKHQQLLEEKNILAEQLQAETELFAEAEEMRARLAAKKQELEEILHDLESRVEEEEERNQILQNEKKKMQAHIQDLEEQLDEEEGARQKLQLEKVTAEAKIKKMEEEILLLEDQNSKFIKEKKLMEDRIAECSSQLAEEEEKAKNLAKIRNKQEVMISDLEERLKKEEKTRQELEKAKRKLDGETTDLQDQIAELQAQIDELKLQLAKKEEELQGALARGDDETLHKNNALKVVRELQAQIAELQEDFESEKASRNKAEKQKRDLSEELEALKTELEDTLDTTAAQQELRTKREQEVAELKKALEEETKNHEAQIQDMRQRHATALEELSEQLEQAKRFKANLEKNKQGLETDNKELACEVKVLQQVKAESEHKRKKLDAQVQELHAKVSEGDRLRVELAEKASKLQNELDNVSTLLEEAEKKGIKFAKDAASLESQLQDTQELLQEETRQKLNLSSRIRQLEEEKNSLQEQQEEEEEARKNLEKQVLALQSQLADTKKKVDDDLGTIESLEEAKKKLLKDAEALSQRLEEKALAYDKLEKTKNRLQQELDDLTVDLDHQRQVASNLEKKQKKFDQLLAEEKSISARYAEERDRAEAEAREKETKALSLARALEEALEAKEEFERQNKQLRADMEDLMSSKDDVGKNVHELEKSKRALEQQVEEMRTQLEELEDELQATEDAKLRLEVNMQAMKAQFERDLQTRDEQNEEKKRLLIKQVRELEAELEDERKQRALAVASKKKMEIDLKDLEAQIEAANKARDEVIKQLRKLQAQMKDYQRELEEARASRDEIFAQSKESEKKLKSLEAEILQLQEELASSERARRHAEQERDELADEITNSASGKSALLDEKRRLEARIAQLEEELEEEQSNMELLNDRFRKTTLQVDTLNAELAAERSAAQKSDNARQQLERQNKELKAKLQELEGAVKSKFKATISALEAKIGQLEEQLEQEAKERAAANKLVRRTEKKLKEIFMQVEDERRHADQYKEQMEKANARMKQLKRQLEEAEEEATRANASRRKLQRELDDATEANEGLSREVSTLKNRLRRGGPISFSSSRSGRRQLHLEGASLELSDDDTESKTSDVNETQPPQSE

Molecular target: Flag-tagged c-Mpl C-terminal domain (UniProt P40238)
Assay: affinity purification with mass spectrometry; Flag-tagged c-Mpl C-terminal domain expressed in HEK-293T cells, precipitated with an anti-Flag antibody; silver-stained gel, proteins identified by mass spectrometry

Substance | binding
Kif11 (endogenous) (from UniProt P52732 1-1056) | binds
Myosin-10 (endogenous) (from UniProt P35580 1-1976) | binds
